In publication PMC6172193:
No constants are given. Whether binding was seen depends on the method and setting. In cells and extracts the contact can be indirect. Some binding calls cover weakened binding; strength is not graded here. For part of these data: Where a sequence is shown, tags or fusion partners need not be part of it.

Amino acid sequences for entries named in this document (tags omitted). A change or cut given only in a name is not applied to a line headed by its entry.
UniProt Q86Y07: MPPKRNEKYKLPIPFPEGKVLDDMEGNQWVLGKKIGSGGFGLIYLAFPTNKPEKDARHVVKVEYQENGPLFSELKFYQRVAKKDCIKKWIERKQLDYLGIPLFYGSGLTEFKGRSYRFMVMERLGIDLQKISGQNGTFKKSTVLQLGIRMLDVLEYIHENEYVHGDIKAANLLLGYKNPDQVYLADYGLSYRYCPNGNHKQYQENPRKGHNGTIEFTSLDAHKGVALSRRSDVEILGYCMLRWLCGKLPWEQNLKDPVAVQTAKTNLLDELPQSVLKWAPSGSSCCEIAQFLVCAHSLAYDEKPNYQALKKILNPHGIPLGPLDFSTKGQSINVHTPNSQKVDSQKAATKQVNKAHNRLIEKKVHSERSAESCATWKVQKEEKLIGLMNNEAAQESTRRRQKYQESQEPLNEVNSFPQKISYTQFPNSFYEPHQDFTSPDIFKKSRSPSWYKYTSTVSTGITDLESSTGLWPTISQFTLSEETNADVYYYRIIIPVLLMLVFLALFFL
UniProt P31749: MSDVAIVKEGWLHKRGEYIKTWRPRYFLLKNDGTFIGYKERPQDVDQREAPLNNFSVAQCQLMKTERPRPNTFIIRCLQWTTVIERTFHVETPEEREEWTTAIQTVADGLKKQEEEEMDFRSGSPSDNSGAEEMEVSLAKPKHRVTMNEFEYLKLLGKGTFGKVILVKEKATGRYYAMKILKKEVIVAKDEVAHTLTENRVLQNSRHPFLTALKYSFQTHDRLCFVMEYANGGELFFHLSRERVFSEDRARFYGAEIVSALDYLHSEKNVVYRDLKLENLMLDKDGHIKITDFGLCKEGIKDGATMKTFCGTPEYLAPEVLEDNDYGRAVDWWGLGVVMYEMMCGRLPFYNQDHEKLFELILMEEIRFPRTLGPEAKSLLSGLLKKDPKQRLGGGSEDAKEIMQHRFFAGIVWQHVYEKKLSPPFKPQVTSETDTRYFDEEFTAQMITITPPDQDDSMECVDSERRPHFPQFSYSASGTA
UniProt Q9Y243: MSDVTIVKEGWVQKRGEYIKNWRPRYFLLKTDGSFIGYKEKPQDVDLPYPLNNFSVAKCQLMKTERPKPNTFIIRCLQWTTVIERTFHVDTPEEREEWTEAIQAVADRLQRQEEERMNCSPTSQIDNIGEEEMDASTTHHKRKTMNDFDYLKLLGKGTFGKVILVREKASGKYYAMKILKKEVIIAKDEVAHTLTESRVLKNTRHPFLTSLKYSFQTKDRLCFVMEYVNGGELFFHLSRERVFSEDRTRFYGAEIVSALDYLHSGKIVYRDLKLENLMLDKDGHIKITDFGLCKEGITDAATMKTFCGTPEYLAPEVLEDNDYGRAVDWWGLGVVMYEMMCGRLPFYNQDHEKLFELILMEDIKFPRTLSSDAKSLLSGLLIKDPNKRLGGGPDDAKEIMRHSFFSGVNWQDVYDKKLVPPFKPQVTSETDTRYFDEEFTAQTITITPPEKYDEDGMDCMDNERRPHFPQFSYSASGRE

Assays:
[1] = biological target: FLAG-tagged VRK2A (wild type) (human) (UniProt Q86Y07); test: co-IP; 293T cells transfected with tagged VRK and Akt constructs (FLAG-VRK2, HA-Akt); immunoblot; which partner was precipitated is not told
[2] = biological target: T1, EGFP-Phafin2 (UniProt Q9H8W4); test: co-IP; 293T cells cotransfected with FLAG-VRK2, HA-Akt2 and EGFP-Phafin2; precipitation with anti-FLAG and anti-GFP antibodies, immunoblot with anti-GFP, anti-HA and anti-FLAG
T1 sequence: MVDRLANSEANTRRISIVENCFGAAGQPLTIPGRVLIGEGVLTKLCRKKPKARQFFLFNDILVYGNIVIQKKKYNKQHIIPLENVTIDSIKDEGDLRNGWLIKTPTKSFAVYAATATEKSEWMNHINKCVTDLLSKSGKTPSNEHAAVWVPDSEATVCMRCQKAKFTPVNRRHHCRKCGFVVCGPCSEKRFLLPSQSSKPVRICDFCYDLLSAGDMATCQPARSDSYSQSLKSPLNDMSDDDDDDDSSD

binding [1] | binding [2] | Substance
binds | – | Akt1 (from UniProt P31749 1-480)
no binding | – | Akt3 (from UniProt Q9Y243 1-479)
– | no binding | FLAG-tagged VRK2A (wild type) (from UniProt Q86Y07-1 1-508)
